No constants are given. Whether binding was seen depends on the method and setting. Some results given as binding are weak or reduced against the parent protein; the word gives no strength. For part of these data: Tags and fused reporters may be left off the sequences shown. Blank lines part the entries; values can stand above or below the molecule they belong to.
How the values were obtained:
[1] = biological target: human heat shock factor 1 (HSF1), his6-tagged, purified recombinant (human) (UniProt Q00613); test: light scattering at 350 nm; as a1 but with 1 mM DTT in the reaction; HSF1 (2 uM) with AZD or heat shock; both purified
[2] = biological target: T1, human heat shock factor 1 (HSF1), his6-tagged, purified recombinant (human), Q00613; test: dynamic light scattering; purified HSF1 with AZD added; shift of the population to higher molecular weight species (Figure S7); both purified; details: remark: other sources report otherwise
T1 chain: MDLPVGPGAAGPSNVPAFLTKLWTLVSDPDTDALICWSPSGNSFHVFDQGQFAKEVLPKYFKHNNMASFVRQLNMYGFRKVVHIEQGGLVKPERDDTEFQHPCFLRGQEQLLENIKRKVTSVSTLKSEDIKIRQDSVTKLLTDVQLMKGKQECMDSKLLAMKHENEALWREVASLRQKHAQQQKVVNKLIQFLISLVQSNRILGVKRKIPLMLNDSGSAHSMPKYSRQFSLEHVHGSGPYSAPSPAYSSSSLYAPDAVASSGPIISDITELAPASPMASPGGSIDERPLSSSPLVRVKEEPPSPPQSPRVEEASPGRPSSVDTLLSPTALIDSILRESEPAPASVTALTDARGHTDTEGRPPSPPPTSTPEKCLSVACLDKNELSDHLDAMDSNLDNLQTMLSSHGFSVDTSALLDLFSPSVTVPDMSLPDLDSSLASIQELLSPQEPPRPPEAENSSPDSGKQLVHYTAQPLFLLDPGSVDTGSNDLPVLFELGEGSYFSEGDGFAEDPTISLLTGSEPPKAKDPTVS

[3] = biological target: T1, human heat shock factor 1 (HSF1), …; test: light scattering at 350 nm; HSF1 (2 uM) in a cell-free system with AZD (4 and 8 uM) or heat shock; kinetics of multimerization followed in a spectrophotometer; both purified; details: remark: other sources report otherwise

binding [1]: no binding (condition: with 1 mM DTT)
Molecule: human heat shock factor 1 (HSF1), his6-tagged, purified recombinant (from UniProt Q00613 1-529)

binding [2]: binds
binding [3]: binds
B1: human heat shock factor 1 (HSF1), his6-tagged, purified recombinant, Q00613 1-529 (protein)
chain: T1 chain

Source: publication PMC5346638, “Azadiradione ameliorates polyglutamine expansion disease in Drosophila by potentiating DNA binding activity of heat shock factor 1” (Oncotarget, 2016)
